# Test results from the supplement of paper PMC3334620.
# Whole data set: some 33,000 sequences, median “E-score (-0.5 to 0.5)” near -0.0014, cut for the highest 2% near 0.25. Some of the results follow.
# Biological target: T1, Cad1 (UniProt P24813)
# T1 sequence: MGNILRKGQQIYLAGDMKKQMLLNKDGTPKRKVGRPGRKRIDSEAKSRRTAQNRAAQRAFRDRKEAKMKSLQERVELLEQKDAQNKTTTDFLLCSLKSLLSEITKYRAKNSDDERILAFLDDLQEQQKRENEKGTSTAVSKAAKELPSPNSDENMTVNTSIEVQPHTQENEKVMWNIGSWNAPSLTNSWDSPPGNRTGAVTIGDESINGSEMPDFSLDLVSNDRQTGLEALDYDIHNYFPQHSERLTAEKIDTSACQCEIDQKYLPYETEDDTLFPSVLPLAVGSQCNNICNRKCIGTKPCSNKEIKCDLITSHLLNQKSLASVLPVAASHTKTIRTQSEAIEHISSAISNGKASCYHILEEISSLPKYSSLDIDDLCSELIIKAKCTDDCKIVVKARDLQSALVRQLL
# Test: PBM E-score (8-mer binding enrichment) (E-score (-0.5 to 0.5)); higher = stronger / more preferred TF binding
# Details: protein concentration: 100 nM; construct: GST-full length
# Procedure, shortened: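 Each ungapped eight-base word and its reverse complement, pooled, received an E-score from the Universal PBM Analysis Suite. Underlying scans, normalised with masliner, recorded fluorescent anti-GST bound to GST-tagged yeast transcription factors. These were applied at about 100-200 nM to universal all-10-mer Agilent arrays double-stranded by primer extension.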
row,Sequence,PBM E-score
1,GAAGCGAA,0.00791
2,TACACTGA,0.0229
3,GCCCTGAC,-0.0335
4,AGAACGTC,-0.00781
5,GATTCTCA,0.0146
6,AACGAGAT,0.0437
7,AGGCCCTC,-0.145
8,CCAAGTAC,-0.172
9,AGGCATCG,-0.0505
10,ACCTGCGC,0.0231
11,AGGGACGC,-0.036
12,GAACGTAA,0.225
13,CCCTAACA,0.142
14,AAGCTGTC,-0.0288
15,GAGTCTGC,-0.0992
16,GTACTGGA,-0.0318
17,ACGTTGGA,-0.0111
18,AGTCCCGC,-0.261
19,CAGCCTTC,-0.132
20,AACAGATT,-0.0147
21,CGGGTTTC,0.179
22,AAGCCGTG,0.0294
23,AGGCCTAC,0.178
24,ATATCCTG,-0.0172
25,CGGTTAAC,-0.12

row,Sequence,PBM E-score
1,CGGTATAA,0.0204
2,TCCCAGCA,-0.0358
3,CATTGTGG,-0.118
4,ATTCATTA,0.0884
5,CATCGTTA,-0.0394
6,GACCTCAC,-0.0522
7,AGACTGGC,-0.0939
8,CTGTTGCA,0.152
9,GCTATCTA,-0.0769
10,ACCTCTTC,-0.0368
11,AAAACGCC,0.139
12,GAGGGCCA,-0.149
13,CGTTAAGC,0.107
14,GGCTTACC,-0.0175
15,CTTCACTC,0.0104
16,AAAACACT,-0.0464
17,CCACCCCA,-0.122
18,CGGACGCA,0.0152
19,ATATTACG,0.24
20,CGCCTGAG,0.00605
21,GAAATAAA,0.0915
22,ACACACCT,0.167
23,CGACCGCG,0.168
24,AATGGTAA,0.195
25,CAAACTGA,0.0338

row,Sequence,PBM E-score
1,CATAAGTA,-0.174
2,ACTATGAT,0.0444
3,ACATTAGC,0.0121
4,CATTAGAA,0.11
5,ACTTACTC,-0.00858
6,ATGGGACA,-0.0588
7,GCACGGCC,0.0311
8,ACCACGAG,0.0195
9,AGCTTGTC,-0.0309
10,AATGATCG,-0.151
11,ATTTATAG,-0.0336
12,CGCCTCGC,-0.112
13,CGCCCGTA,-0.182
14,AATTAAGA,0.104
15,ACTAAAAA,0.107
16,GCCTTTTA,-0.116
17,GATCTTCA,0.0512
18,CAATGACA,0.0686
19,CTACAGCA,0.0454
20,GAGACCAA,0.0177
21,ACTAGTAC,0.0653
22,ACTCCCAA,-0.0495
23,CTCGAAAG,-0.0303
24,CTAGACAG,0.0439
25,CGTTCTAG,0.0132

row,Sequence,PBM E-score
1,CCCTAATA,0.08
2,GCTGTTGA,0.215
3,GCATTCAA,0.0687
4,GAGACATA,0.039
5,CGATCACA,0.204
6,ACGATGAG,0.0487
7,GTGTGCAA,0.0461
8,TGCTAACA,0.043
9,CGTTTCAA,0.0179
10,ATTGGATA,0.0589
11,GTAGACCA,-0.176
12,AATATCGT,0.272
13,ACTGGGTA,-0.105
14,AAATTTCA,0.113
15,ACCTGGCA,-0.0272
16,ATCTTATG,0.0315
17,CGGGAGGA,-0.0897
18,AGGGCAGG,-0.139
19,AGAATACA,0.0745
20,GATGGCGA,0.0628
21,AATTGAGA,0.164
22,CCGATTAC,0.0359
23,GAGGCCAA,0.0162
24,CAGGACAG,0.0794
25,ATCAAATC,0.0979

# Exported with tabs: entries from further up
row	Sequence	PBM E-score
2	ACTATGAT	0.0444
3	ACATTAGC	0.0121
4	CATTAGAA	0.11
5	ACTTACTC	-0.00858
6	ATGGGACA	-0.0588
7	GCACGGCC	0.0311
8	ACCACGAG	0.0195
9	AGCTTGTC	-0.0309
10	AATGATCG	-0.151
11	ATTTATAG	-0.0336
12	CGCCTCGC	-0.112
13	CGCCCGTA	-0.182
14	AATTAAGA	0.104
16	GCCTTTTA	-0.116
17	GATCTTCA	0.0512
18	CAATGACA	0.0686
19	CTACAGCA	0.0454
20	GAGACCAA	0.0177
21	ACTAGTAC	0.0653
22	ACTCCCAA	-0.0495
23	CTCGAAAG	-0.0303
24	CTAGACAG	0.0439
25	CGTTCTAG	0.0132
1	CCCTAATA	0.08
2	GCTGTTGA	0.215
3	GCATTCAA	0.0687
4	GAGACATA	0.039
5	CGATCACA	0.204
6	ACGATGAG	0.0487
7	GTGTGCAA	0.0461
8	TGCTAACA	0.043
9	CGTTTCAA	0.0179
11	GTAGACCA	-0.176
12	AATATCGT	0.272
13	ACTGGGTA	-0.105
14	AAATTTCA	0.113
15	ACCTGGCA	-0.0272
16	ATCTTATG	0.0315
17	CGGGAGGA	-0.0897
19	AGAATACA	0.0745
20	GATGGCGA	0.0628
21	AATTGAGA	0.164
22	CCGATTAC	0.0359
23	GAGGCCAA	0.0162
24	CAGGACAG	0.0794
25	ATCAAATC	0.0979

# Additional results follow.

row,Sequence,PBM E-score
1,AAGAAACA,0.127
2,TACCACTA,-0.0282
3,GGGCACCC,-0.35
4,ACCAGTAT,0.0915
5,CTGGTGCC,-0.168
6,AAATAACT,0.237
7,CATTAAGG,-0.0137
8,AGCTATGG,-0.0808
9,CGACACCG,-0.0522
10,ATACCATA,0.27
11,ACGCCCGT,0.0733
12,CGTTGAGC,0.082
13,TGGACGAA,0.0609
14,CCCTGGTA,-0.171
15,GTCGACGA,0.15
16,ACGGCGAA,0.145
17,ATCTGTAC,0.0684
18,CATGAAAC,0.103
19,TACGTCCA,-0.0217
20,GGAGTGGA,-0.0778
21,GAAAGGCA,-0.0708
22,CAACCTAA,0.0817
23,AACGAGCG,0.167
24,AAGTCGCG,0.0917
25,ATTCTGCG,0.0803

row,Sequence,PBM E-score
1,AATCTGGC,-0.102
2,GATGCTCA,-0.111
3,TCGGTTCA,-0.0954
4,CACCTATC,0.0313
5,CTACCGGA,-0.155
6,GGACAGTA,0.146
7,CACCTGAA,0.103
8,CTGCTTTA,0.161
9,ACAGTAAT,0.217
10,TAAAATAA,0.164
11,CGGACTTC,-0.171
12,GCTCGACC,-0.0593
13,ACAGCCCC,-0.121
14,ATGATAGA,0.0739
15,CCTACAAG,-0.227
16,GAGAGATA,0.039
17,CGACTCTA,-0.142
18,CCCTGACC,-0.0493
19,CACCACAG,0.0919
20,ACCAAACA,0.13
21,ACGCGATG,0.051
22,CCAGAAGA,-0.206
23,CCTTTCAA,-0.105
24,GCGCAGAC,0.104
25,AAGGCTTC,-0.147

row,Sequence,PBM E-score
1,CTCCCGAC,-0.183
2,CGGTTCAG,-0.104
3,GGGTGAGA,-0.248
4,CAGAAATG,0.0237
5,CTAGCGTC,-0.126
6,ACTGTATA,0.122
7,ATGAACGG,-0.0252
8,AGTGATCG,0.0171
9,CAAAGAAC,0.0597
10,ACCTCAAC,0.055
11,CCATCAGA,-0.114
12,GTATAGAA,0.0196
13,CTGACGTA,0.0659
14,CTCGGTGA,-0.057
15,AGGATCAC,0.00581
16,CCCTCAAG,-0.238
17,ATCACCTG,-0.141
18,GACCCAAA,-0.0187
19,CGCCACCC,-0.116
20,GGCAAGAC,-0.0601
21,TAAGTGAA,0.0211
22,ATGCACTA,-0.0535
